Data taken from the supplement of paper PMC10470496.
Structures can show the parent of a compound that is named as a salt. The list shows a part of the results. Repeats are few or missing, and single values can be far off.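 The three strains are clinical Candida auris isolates from the CDC resistance isolate bank, from clades III, IV and I, grown in RPMI-1640 at 35°C. Growth is background-corrected OD600 relative to vehicle-only wells on the same plate; a hit meant over 50% inhibition in at least two strains plus a plate-corrected B-score above 0.1.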

What was measured:
Test in all cases: growth relative to vehicle control (OD600 ratio) (fraction); higher = less inhibition
Details in all cases: 24 h
C. auris AR-384 = tested on: C. auris AR-384
C. auris AR-386 = tested on: C. auris AR-386
C. auris AR-387 = tested on: C. auris AR-387

| SMILES | growth (C. auris AR-384; 1 µM) | growth (C. auris AR-384; 10 µM) | growth (C. auris AR-386; 1 µM) | growth (C. auris AR-386; 10 µM) | growth (C. auris AR-387; 1 µM) | growth (C. auris AR-387; 10 µM) |
| --- | --- | --- | --- | --- | --- | --- |
| CS(=O)(=O)CCNCc1ccc(-c2ccc3ncnc(Nc4ccc(OCc5cccc(F)c5)c(Cl)c4)c3c2)o1 | 0.78 | 0.51 | 0.62 | 0.7 | 0.82 | 0.84 |
| Oc1ccc(OCc2ccccc2)cc1 [Monobenzone] | 0.91 | 0.54 | 0.77 | 1.11 | 0.81 | 0.92 |
| O=C(c1ccc(F)c(F)c1Nc1ccc(I)cc1F)N1CC(O)([C@@H]2CCCCN2)C1 [Cobimetinib (GDC-0973, RG7420)] | 1.39 | 1.26 | 0.99 | 1.03 | 1.04 | 1.03 |
| O=C(N[C@H](CO)[C@H](O)c1ccc([N+](=O)[O-])cc1)C(Cl)Cl [Chloramphenicol] | 0.87 | 0.92 | 0.75 | 0.76 | 0.68 | 0.82 |
| NC(=O)c1cccc2cn(-c3ccc([C@@H]4CCCNC4)cc3)nc12 [Niraparib (MK-4827)] | 1.33 | 1.6 | 1.12 | 1.33 | 1.33 | 1.13 |
| CN(C)CCC=C1c2ccccc2COc2ccccc21 [Doxepin HCl] | 1.26 | 1.32 | 1.01 | 1.06 | 1.11 | 1.39 |
| CC(=O)Nc1cccc(-n2c(=O)n(C3CC3)c(=O)c3c(Nc4ccc(I)cc4F)n(C)c(=O)c(C)c32)c1 | 0.89 | 0.78 | 1.32 | 0.97 | 0.66 | 0.6 |
| CS(=O)(=O)CCNCc1ccc(-c2ccc3ncnc(Nc4ccc(OCc5cccc(F)c5)c(Cl)c4)c3c2)o1 [Lapatinib] | 0.92 | 0.88 | 0.97 | 0.84 | 0.91 | 0.83 |
| NNC(=O)c1ccncc1 [Isoniazid] | 1.06 | 1 | 1.09 | 0.94 | 0.64 | 0.57 |
| CNC(=O)[C@H](Cc1c[nH]c2ccccc12)NC(=O)[C@@H](CC(=O)NO)CC(C)C [Ilomastat (GM6001, Galardin)] | 1.05 | 1.24 | 0.98 | 1.02 | 0.84 | 0.75 |
| OCCN1CCN(CCCN2c3ccccc3Sc3ccc(C(F)(F)F)cc32)CC1 [Fluphenazine dihydrochloride] | 0.99 | 0.92 | 0.78 | 0.87 | 0.77 | 0.9 |
| Nc1ncn([C@H]2C[C@H](O)[C@@H](CO)O2)c(=O)n1 [Decitabine] | 1 | 1.02 | 1.19 | 1.42 | 0.96 | 1.27 |
| Cc1ncc([N+](=O)[O-])n1CC(O)CCl (centres undefined) [Ornidazole] | 0.93 | 1.15 | 1.1 | 1.16 | 1.03 | 1.08 |
| C#CCN(C)Cc1ccccc1 [Pargyline hydrochloride] | 0.85 | 0.87 | 1.1 | 1.27 | 0.84 | 1.21 |
| CCCCCOc1ccc(-c2cc(-c3ccc(C(=O)N[C@H]4C[C@@H](O)[C@@H](O)NC(=O)[C@@H]5[C@@H](O)[C@@H](C)CN5C(=O)[C@H]([C@H](O)CC(N)=O)NC(=O)[C@H]([C@H](O)[C@@H](O)c5ccc(O)c(OS(=O)(=O)O)c5)NC(=O)[C@@H]5C[C@@H](O)CN5C(=O)[C@H]([C@@H](C)O)NC4=O)cc3)no2)cc1 [Micafungin Sodium] | 0.45 | 0.49 | 0.08 | 0.08 | 0 | 0.12 |
| CCCN(CCc1cccs1)[C@H]1CCc2c(O)cccc2C1 [Rotigotine] | 0.95 | 0.8 | 0.79 | 0.94 | 0.94 | 0.96 |
| CC(=O)O[C@@]12CO[C@@H]1C[C@H](O)[C@@]1(C)C(=O)[C@H](O)C3=C(C)[C@@H](OC(=O)[C@H](O)[C@@H](NC(=O)OC(C)(C)C)c4ccccc4)C[C@@](O)([C@@H](OC(=O)c4ccccc4)[C@H]21)C3(C)C [Docetaxel] | 0.68 | 0.66 | 0.84 | 0.79 | 1.06 | 0.57 |
| CC(C(=O)O)c1ccc(C(=O)c2cccs2)cc1 (centres undefined) [Suprofen] | 0.66 | 0.82 | 1 | 0.93 | 0.87 | 1.1 |
| Cn1cnc([N+](=O)[O-])c1Sc1ncnc2[nH]cnc12 [Azathioprine] | 0.93 | 1.3 | 1.44 | 0.83 | 1.13 | 1.09 |
| CC[C@H](C)C(=O)O[C@H]1CCC=C2C=C[C@H](C)[C@H](CC[C@@H]3C[C@@H](O)CC(=O)O3)[C@H]21 [Mevastatin] | 1.1 | 1 | 0.7 | 0.76 | 0.86 | 0.92 |
| CCC(=O)NCC[C@@H]1CCc2ccc3c(c21)CCO3 [Ramelteon] | 0.69 | 0.53 | 0.66 | 0.63 | 0.78 | 0.77 |
| CN1CCN(c2ccc3nc(-c4c(N)c5c(F)cccc5[nH]c4=O)[nH]c3c2)CC1 [Dovitinib (TKI258) Lactate] | 1.03 | 0.8 | 0.86 | 0.83 | 0.73 | 1.01 |

| SMILES | growth (C. auris AR-384; 1 µM) | growth (C. auris AR-384; 10 µM) | growth (C. auris AR-386; 1 µM) | growth (C. auris AR-386; 10 µM) | growth (C. auris AR-387; 1 µM) | growth (C. auris AR-387; 10 µM) |
| --- | --- | --- | --- | --- | --- | --- |
| Fc1ccc(C(c2ccc(F)cc2)N2CCN(C/C=C/c3ccccc3)CC2)cc1 [Flunarizine 2HCl] | 0.95 | 1 | 1 | 0.71 | 0.81 | 0.77 |
| Cc1cccc(C)c1OCC(=O)N[C@@H](Cc1ccccc1)[C@@H](O)C[C@H](Cc1ccccc1)NC(=O)[C@H](C(C)C)N1CCCNC1=O [Lopinavir] | 0.96 | 1.35 | 1.42 | 0.78 | 1.06 | 1.16 |
| CC(=O)N[C@H]1[C@H]([C@H](O)[C@H](O)CO)OC(C(=O)O)=C[C@@H]1NC(=N)N [Zanamivir] | 1.28 | 1.16 | 1.03 | 1.19 | 1.12 | 1.24 |
| OCCN1CCN(CC/C=C2/c3ccccc3Sc3ccc(C(F)(F)F)cc32)CC1 [Flupenthixol dihydrochloride] | 0.94 | 1.2 | 0.94 | 1.06 | 0.93 | 1.11 |
| N[C@@H](Cc1cc(I)c(Oc2cc(I)c(O)c(I)c2)c(I)c1)C(=O)O [Levothyroxine sodium] | 0.93 | 0.71 | 0.7 | 0.82 | 1.18 | 0.78 |
| S=c1nc[nH]c2nc[nH]c12 [6-Mercaptopurine (6-MP) Monohydrate] | 0.93 | 0.87 | 0.99 | 1.1 | 1 | 1.11 |
| CCCCCCCCCC(=O)N[C@H]1[C@H](Oc2c3cc4cc2Oc2ccc(cc2Cl)[C@@H](O[C@@H]2O[C@H](CO)[C@@H](O)[C@H](O)[C@H]2NC(C)=O)[C@@H]2NC(=O)[C@H](NC(=O)[C@@H]4NC(=O)[C@H]4NC(=O)[C@@H](Cc5ccc(c(Cl)c5)O3)NC(=O)[C@H](N)c3ccc(O)c(c3)Oc3cc(O)cc4c3)c3ccc(O)c(c3)-c3c(OC4O[C@H](CO)[C@@H](O)[C@H](O)[C@@H]4O)cc(O)cc3[C@@H](C(=O)O)NC2=O)O[C@H](CO)[C@@H](O)[C@@H]1O (some centres undefined) [Teicoplanin] | 0.85 | 0.44 | 0.89 | 0.92 | 0.83 | 0.83 |
| CC(C)C[C@H](NC(=O)[C@@H](Cc1cccc2ccccc12)NC(=O)[C@H](Cc1ccc(O)cc1)NC(=O)[C@H](CO)NC(=O)[C@H](Cc1c[nH]c2ccccc12)NC(=O)[C@H](Cc1cnc[nH]1)NC(=O)[C@@H]1CCC(=O)N1)C(=O)N[C@@H](CCCNC(=N)N)C(=O)N1CCC[C@H]1C(=O)NCC(N)=O [Nafarelin Acetate] | 0.72 | 0.83 | 0.85 | 0.74 | 0.87 | 0.72 |
| Cc1c(C(=O)Nc2ccc(N3C[C@@H](C)O[C@@H](C)C3)nc2)cccc1-c1ccc(OC(F)(F)F)cc1 [Sonidegib (Erismodegib, NVP-LDE225)] | 0.78 | 0.69 | 0.68 | 0.81 | 0.73 | 0.66 |
| CN1CCN2c3ncccc3Cc3ccccc3C2C1 (centres undefined) [Mirtazapine] | 0.86 | 0.93 | 0.89 | 0.69 | 0.99 | 0.62 |
| COC(=O)C1=C(C)NC(C)=C(C(=O)OCCN2CCN(C(c3ccccc3)c3ccccc3)CC2)C1c1cccc([N+](=O)[O-])c1 (centres undefined) [Manidipine 2HCl] | 0.94 | 0.99 | 0.67 | 0.56 | 0.84 | 1.15 |
| CN(C)c1nc(N(C)C)nc(N(C)C)n1 [Altretamine] | 0.81 | 1.02 | 1.01 | 0.89 | 0.83 | 0.94 |
| C[C@@H]1O[C@@H](OC[C@H]2O[C@@H](Oc3c(-c4ccc(O)c(O)c4)oc4cc(O)cc(O)c4c3=O)[C@H](O)[C@@H](O)[C@@H]2O)[C@H](O)[C@H](O)[C@H]1O [Rutin] | 0.84 | 0.68 | 0.81 | 0.94 | 0.74 | 0.88 |
| O=C(O)c1cc(=O)[nH]c(=O)[nH]1 [Orotic acid (6-Carboxyuracil)] | 0.84 | 0.9 | 0.91 | 0.63 | 0.93 | 0.94 |
| O=C(C[S+]([O-])Cc1ccco1)NC/C=C\COc1cc(CN2CCCCC2)ccn1 (centres undefined) [Lafutidine] | 1.05 | 1.01 | 0.86 | 0.98 | 0.91 | 0.62 |
| O=C(NC[C@H]1CN(c2ccc(N3CCOCC3=O)cc2)C(=O)O1)c1ccc(Cl)s1 [Rivaroxaban] | 0.97 | 0.9 | 0.85 | 0.88 | 0.83 | 1.01 |
| CC(=O)NC[C@H]1CN(c2ccc(N3CCOCC3)c(F)c2)C(=O)O1 [Linezolid] | 0.87 | 0.81 | 1.17 | 0.77 | 0.9 | 0.84 |
| Cc1c(-c2cnccn2)ssc1=S [Oltipraz] | 0.85 | 0.65 | 0.72 | 0.82 | 0.75 | 0.76 |
| CC(CCc1ccccc1)NCC(O)c1ccc(O)c(C(N)=O)c1 (centres undefined) [Labetalol HCl] | 0.96 | 0.73 | 0.98 | 0.6 | 0.67 | 0.55 |
| NC(=O)[C@@H](CCC(F)(F)F)N(Cc1ccc(-c2ncon2)cc1F)S(=O)(=O)c1ccc(Cl)cc1 | 1.14 | 0.59 | 0.81 | 1.04 | 0.76 | 0.67 |
| Nc1nnc(-c2cccc(Cl)c2Cl)c(N)n1 [Lamotrigine] | 0.91 | 0.87 | 1.01 | 0.96 | 0.88 | 0.86 |
| CO/N=C(\C(=O)N[C@@H]1C(=O)N2C(C(=O)OCOC(=O)C(C)(C)C)=C(/C=C\c3scnc3C)CS[C@H]12)c1csc(N)n1 [Cefditoren Pivoxil] | 1.27 | 0.93 | 0.72 | 0.72 | 0.77 | 1.03 |

Single records, as listed above. Order of values: growth (C. auris AR-384; 1 µM) | growth (C. auris AR-384; 10 µM) | growth (C. auris AR-386; 1 µM) | growth (C. auris AR-386; 10 µM) | growth (C. auris AR-387; 1 µM) | growth (C. auris AR-387; 10 µM)
S=c1nc[nH]c2nc[nH]c12 [6-Mercaptopurine (6-MP) Monohydrate] is entered as 0.93 | 0.87 | 0.99 | 1.1 | 1 | 1.11
CC(C)C[C@H](NC(=O)[C@@H](Cc1cccc2ccccc12)NC(=O)[C@H](Cc1ccc(O)cc1)NC(=O)[C@H](CO)NC(=O)[C@H](Cc1c[nH]c2ccccc12)NC(=O)[C@H](Cc1cnc[nH]1)NC(=O)[C@@H]1CCC(=O)N1)C(=O)N[C@@H](CCCNC(=N)N)C(=O)N1CCC[C@H]1C(=O)NCC(N)=O [Nafarelin Acetate] is entered as 0.72 | 0.83 | 0.85 | 0.74 | 0.87 | 0.72
